Results deposited as PubChem BioAssay AID1224827 (NIAID, 2016).
The deposit covers about 3,800 reagents; shown is a part drawn at random. About 2,200 of all reagents (57%) count as active. 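Active means a strong reporter change in either direction; calls are per siRNA, not per gene; qiagen siRNAs gave weaker effects.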 Not all columns of the deposit are shown.

Aim: 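Confirm genes whose knock-down changes LPS-driven TNF promoter activity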 (follow-up of hits)
Cell system: RAW264.7 G9 mouse macrophage reporter clone
Knock-down reagent: single siRNA against mouse genes, 100 nM siRNA
Duration: siRNA for 2 days, then LPS about 16 h
Challenge: bacterial lipopolysaccharide (LPS), 10 ng/ml, cells fixed after overnight (about 16 h) stimulation
Detection: 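Imaged nuclear TNF reporter intensity, background removed, scaled per plate and to non-targeting control wells, as z-scores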
Scale: TNF reporter z-score, mean and TNF reporter z-score: higher = stronger Tnf promoter reporter signal; gene median z, three same-vendor siRNAs: higher = stronger Tnf reporter signal for the gene
Hit rule: 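An siRNA is called active when its mean z-score over replicates is at least +2 or at most -2; control wells get no call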

The opening 8 entries, ahead of the listing:
| target gene | PubChem SID | TNF reporter z-score, mean | gene median z, three same-vendor siRNAs | TNF reporter z-score, repeat 1 | outcome |
| --- | --- | --- | --- | --- | --- |
| Serpinb6c | SID315487377 | 0.67 | -1.37 | 1.5 | inactive |
| Serpinb6c | SID315487378 | -1.37 | -1.37 | -1.88 | inactive |
| Serpinb6c | SID315487379 | -5.73 | -1.37 | -6.03 | active |
| Serpinb6c | SID315487380 | 2.07 | 0.248 | 3.95 | active |
| Serpinb6c | SID315487381 | 0.893 | 0.248 | 1.47 | inactive |
| Serpinb6c | SID315487382 | -3.68 | 0.248 | -4.85 | active |
| Pex13 | SID315486711 | -0.934 | -2.09 | -1.32 | inactive |
| Pex13 | SID315486712 | -2.43 | -2.09 | -3.01 | active |

The list itself, from the first entry:
| target gene | PubChem SID | TNF reporter z-score, mean | gene median z, three same-vendor siRNAs | TNF reporter z-score, repeat 1 | outcome |
| --- | --- | --- | --- | --- | --- |
| Serpinb6c | SID315487377 | 0.67 | -1.37 | 1.5 | inactive |
| Serpinb6c | SID315487378 | -1.37 | -1.37 | -1.88 | inactive |
| Serpinb6c | SID315487379 | -5.73 | -1.37 | -6.03 | active |
| Serpinb6c | SID315487380 | 2.07 | 0.248 | 3.95 | active |
| Serpinb6c | SID315487381 | 0.893 | 0.248 | 1.47 | inactive |
| Serpinb6c | SID315487382 | -3.68 | 0.248 | -4.85 | active |
| Pex13 | SID315486711 | -0.934 | -2.09 | -1.32 | inactive |
| Pex13 | SID315486712 | -2.43 | -2.09 | -3.01 | active |
| Pex13 | SID315486713 | -3.07 | -2.09 | -2.32 | active |
| Pex13 | SID315486714 | 2.1 | 1.11 | 3.57 | active |
| Pex13 | SID315486715 | 0.897 | 1.11 | 1.58 | inactive |
| Pex13 | SID315486716 | 1.06 | 1.11 | 3.28 | inactive |
| Csf1 | SID315483999 | 0.896 | -3.47 | 1.51 | inactive |
| Csf1 | SID315484000 | -3.95 | -3.47 | -4.56 | active |
| Csf1 | SID315484001 | -4.57 | -3.47 | -3.6 | active |
| Csf1 | SID315484002 | 0.614 | 0.335 | 1.85 | inactive |
| Csf1 | SID315484003 | 0.335 | 0.335 | 0.91 | inactive |
| Csf1 | SID315484004 | 0.661 | 0.335 | 2.26 | inactive |
| Serpinc1 | SID315483777 | 1.52 | -0.652 | 1.27 | inactive |
| Serpinc1 | SID315483778 | -0.652 | -0.652 | -1.64 | inactive |
| Serpinc1 | SID315483779 | -3.49 | -0.652 | -3.4 | active |
| Serpinc1 | SID315483780 | 4.13 | 2.19 | 7.35 | active |
| Serpinc1 | SID315483781 | 1.8 | 2.19 | 3.62 | inactive |
| Serpinc1 | SID315483782 | 1.03 | 2.19 | 3.47 | inactive |
| Brd4 | SID315486045 | -3.4 | -3.84 | -2.82 | active |
| Brd4 | SID315486046 | -3.04 | -3.84 | -3.69 | active |
| Brd4 | SID315486047 | -5.29 | -3.84 | -5.16 | active |
| Brd4 | SID315486048 | 1.92 | -0.187 | 3.55 | inactive |
| Brd4 | SID315486049 | 0.87 | -0.187 | 2.83 | inactive |
| Brd4 | SID315486050 | -2.4 | -0.187 | -0.658 | active |
| Tpr | SID315487518 | -4.01 | -5.05 | -3.55 | active |
| Tpr | SID315487519 | -5.28 | -5.05 | -5.33 | active |
| Tpr | SID315487520 | -5.35 | -5.05 | -4.87 | active |
| Tpr | SID315487521 | 1.14 | -0.217 | 2.46 | inactive |
| Tpr | SID315487522 | 0.25 | -0.217 | 0.749 | inactive |
| Tpr | SID315487523 | -1.43 | -0.217 | -0.571 | inactive |
| Opn4 | SID315485481 | -2.31 | -3.62 | -2.06 | active |
| Opn4 | SID315485482 | -3.19 | -3.62 | -4.9 | active |
| Opn4 | SID315485483 | -4.99 | -3.62 | -5.32 | active |
| Opn4 | SID315485484 | 10.4 | 2.84 | 16.5 | active |
| Opn4 | SID315485485 | 1.72 | 2.84 | 4.2 | inactive |
| Opn4 | SID315485486 | 0.177 | 2.84 | 1.48 | inactive |
| Dffa | SID315484038 | -1.62 | -2.65 | -2 | inactive |
| Dffa | SID315484039 | -2.56 | -2.65 | -3.3 | active |
| Dffa | SID315484040 | -4.25 | -2.65 | -4.49 | active |
| Dffa | SID315484041 | 1 | -1.18 | 4.55 | inactive |
| Dffa | SID315484042 | -1.18 | -1.18 | -0.795 | inactive |
| Dffa | SID315484043 | -1.53 | -1.18 | -0.0924 | inactive |
| Fam91a1 | SID315488076 | -0.664 | -2.21 | -0.778 | inactive |
| Fam91a1 | SID315488077 | -2.63 | -2.21 | -2.28 | active |
| Fam91a1 | SID315488078 | -2.57 | -2.21 | -3.01 | active |
| Fam91a1 | SID315488079 | 3.41 | 0.83 | 5.73 | active |
| Fam91a1 | SID315488080 | -0.501 | 0.83 | 0.58 | inactive |
| Fam91a1 | SID315488081 | 0.00416 | 0.83 | 1.93 | inactive |
| Serpina1b | SID315484902 | -2.25 | -4.33 | -2.22 | active |
| Serpina1b | SID315484903 | -4.72 | -4.33 | -4.96 | active |
| Serpina1b | SID315484904 | -5.09 | -4.33 | -4.18 | active |
| Serpina1b | SID315484905 | 0.828 | -1.08 | 2.63 | inactive |
| Serpina1b | SID315484906 | -0.675 | -1.08 | -0.159 | inactive |
| Serpina1b | SID315484907 | -2.01 | -1.08 | -1.23 | active |
| Galnt6 | SID315488046 | -3.19 | -4.26 | -3.26 | active |
| Galnt6 | SID315488047 | -4.26 | -4.26 | -4.11 | active |
| Galnt6 | SID315488048 | -4.86 | -4.26 | -5.03 | active |
| Galnt6 | SID315488049 | 2.48 | 0.112 | 4.39 | active |
| Galnt6 | SID315488050 | 0.69 | 0.112 | 1.72 | inactive |
| Galnt6 | SID315488051 | -3.48 | 0.112 | -3.67 | active |
| LOC269472 (retired record) | SID315488793 | 2.55 | 2.5 | 4.43 | active |
| LOC269472 (retired record) | SID315488794 | 2.34 | 2.5 | 4.42 | active |
| LOC269472 (retired record) | SID315488795 | 2.23 | 2.5 | 4.35 | active |
| Clta | SID315483963 | -0.493 | -2.36 | -2.27 | inactive |
| Clta | SID315483964 | -1.82 | -2.36 | -2.86 | inactive |
| Clta | SID315483965 | -2.9 | -2.36 | -2.44 | active |
| Clta | SID315483966 | 4.55 | 0.722 | 8.73 | active |
| Clta | SID315483967 | 2.53 | 0.722 | 4.15 | active |
| Clta | SID315483968 | -1.34 | 0.722 | 0.537 | inactive |
